Results are given in words; binding and its absence hold for the method and conditions named. In cells and extracts the contact can be indirect. These calls come from enrichment with a bait or labelling near it, and not all partners need be listed. Sequences can lack the tags named with a protein.
T1: pTRB:TRB-FLAG TRB1 (Telomere Repeat Binding factor 1 with 3xFLAG) (Arabidopsis thaliana), Q8VWK4
T1 chain: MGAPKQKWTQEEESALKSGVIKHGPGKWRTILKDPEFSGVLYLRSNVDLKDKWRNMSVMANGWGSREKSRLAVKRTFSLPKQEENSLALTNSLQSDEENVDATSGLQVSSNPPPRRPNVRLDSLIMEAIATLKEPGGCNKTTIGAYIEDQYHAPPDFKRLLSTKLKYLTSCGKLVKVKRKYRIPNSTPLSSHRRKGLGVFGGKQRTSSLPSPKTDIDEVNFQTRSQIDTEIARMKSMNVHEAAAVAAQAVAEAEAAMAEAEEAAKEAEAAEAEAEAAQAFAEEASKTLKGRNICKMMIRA

T2: pTRB:TRB-FLAG TRB3 (Telomere Repeat Binding factor 3 with 3xFLAG) (Arabidopsis thaliana), Q9M2X3
T2 chain: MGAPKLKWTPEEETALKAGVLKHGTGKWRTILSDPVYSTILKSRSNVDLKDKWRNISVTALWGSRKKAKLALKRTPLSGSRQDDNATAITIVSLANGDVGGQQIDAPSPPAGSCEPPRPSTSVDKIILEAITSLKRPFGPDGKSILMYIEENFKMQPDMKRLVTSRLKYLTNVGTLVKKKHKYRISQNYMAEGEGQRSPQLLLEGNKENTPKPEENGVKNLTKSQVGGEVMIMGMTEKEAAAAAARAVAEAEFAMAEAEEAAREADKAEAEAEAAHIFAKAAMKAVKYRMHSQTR

T3: pTRB:TRB-FLAG TRB2 (Telomere Repeat Binding factor 2 with 3xFLAG) (Arabidopsis thaliana), Q9FJW5
T3 chain: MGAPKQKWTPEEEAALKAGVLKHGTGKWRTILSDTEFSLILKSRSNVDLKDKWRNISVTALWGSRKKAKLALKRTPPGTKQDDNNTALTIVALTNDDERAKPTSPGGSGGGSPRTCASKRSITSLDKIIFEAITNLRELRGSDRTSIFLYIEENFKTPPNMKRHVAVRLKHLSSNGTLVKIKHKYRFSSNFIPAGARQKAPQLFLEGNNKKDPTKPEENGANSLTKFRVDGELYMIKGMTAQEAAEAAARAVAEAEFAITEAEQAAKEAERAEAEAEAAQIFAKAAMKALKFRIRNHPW

T4: pTRB:TRB-FLAG TRB1 (Telomere Repeat Binding factor 1 with 3xFLAG) (Arabidopsis thaliana) (UniProt Q8VWK4)
T4 sequence: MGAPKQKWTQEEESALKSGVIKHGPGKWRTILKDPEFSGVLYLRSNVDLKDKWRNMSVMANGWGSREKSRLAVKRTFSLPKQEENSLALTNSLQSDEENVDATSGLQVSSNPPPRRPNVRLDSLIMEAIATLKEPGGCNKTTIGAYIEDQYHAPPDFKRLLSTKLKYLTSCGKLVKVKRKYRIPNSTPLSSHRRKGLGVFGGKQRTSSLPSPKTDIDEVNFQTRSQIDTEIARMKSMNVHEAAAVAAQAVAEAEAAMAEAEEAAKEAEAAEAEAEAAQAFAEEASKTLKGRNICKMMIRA

T5: pTRB:TRB-FLAG TRB2 (Telomere Repeat Binding factor 2 with 3xFLAG) (Arabidopsis thaliana) (UniProt Q9FJW5)
T5 sequence: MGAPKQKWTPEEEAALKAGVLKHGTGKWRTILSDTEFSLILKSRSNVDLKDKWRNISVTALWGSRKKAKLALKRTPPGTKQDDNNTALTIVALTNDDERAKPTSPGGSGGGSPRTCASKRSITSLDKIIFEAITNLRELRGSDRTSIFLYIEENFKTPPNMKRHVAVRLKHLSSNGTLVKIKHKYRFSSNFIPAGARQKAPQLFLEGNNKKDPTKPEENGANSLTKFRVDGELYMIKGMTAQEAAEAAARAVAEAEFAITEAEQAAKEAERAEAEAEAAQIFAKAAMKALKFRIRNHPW

T6: pTRB:TRB-FLAG TRB3 (Telomere Repeat Binding factor 3 with 3xFLAG) (Arabidopsis thaliana) (UniProt Q9M2X3)
T6 sequence: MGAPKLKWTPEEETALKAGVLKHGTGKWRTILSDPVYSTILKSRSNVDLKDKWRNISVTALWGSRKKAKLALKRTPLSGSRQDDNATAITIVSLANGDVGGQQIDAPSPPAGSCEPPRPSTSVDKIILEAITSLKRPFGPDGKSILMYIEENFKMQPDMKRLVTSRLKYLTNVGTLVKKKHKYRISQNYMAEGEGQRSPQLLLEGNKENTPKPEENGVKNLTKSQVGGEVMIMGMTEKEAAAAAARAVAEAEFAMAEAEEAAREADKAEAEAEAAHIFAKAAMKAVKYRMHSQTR


What was measured:
Experiment in all cases: affinity purification with mass spectrometry; native and formaldehyde cross-linked IP-MS from floral buds of FLAG-TRB1, 2 and 3 lines with Col-0 as control; anti-FLAG M2 magnetic beads, 4 °C, 2 h; eluted with 3X FLAG peptides; results of the two formats are told together
[1] = molecular target: T1, pTRB:TRB-FLAG TRB1 (Telomere Repeat …); details: remark: other sources report otherwise
[2] = molecular target: T2, pTRB:TRB-FLAG TRB3 (Telomere Repeat …); details: remark: other sources report otherwise
[3] = molecular target: T3, pTRB:TRB-FLAG TRB2 (Telomere Repeat …); details: remark: other sources report otherwise
[4] = molecular target: T4, pTRB:TRB-FLAG TRB1 (Telomere Repeat Binding factor 1 with 3xFLAG) (Arabidopsis thaliana)
[5] = molecular target: T5, pTRB:TRB-FLAG TRB2 (Telomere Repeat Binding factor 2 with 3xFLAG) (Arabidopsis thaliana)
[6] = molecular target: T6, pTRB:TRB-FLAG TRB3 (Telomere Repeat Binding factor 3 with 3xFLAG) (Arabidopsis thaliana)

Binder | binding [1] | binding [2] | binding [3] | binding [4] | binding [5] | binding [6]
LIKE HETEROCHROMATIN PROTEIN1 (LHP1), endogenous, Q946J8 1-445 (protein) MKGASGAVKKKPQVLNEAGEAETAVETVGESRKISGDGGFGSDDGGGGGGGGSGESILREIGDDRPTEDGDEEEEEDEDEDDGGDEEDEEGEGEGGQEERPKLDEGFYEIEAIRRKRVRKGKVQYLIKWRGWPETANTWEPLENLQSIADVIDAFEGSLKPGKPGRKRKRKYAGPHSQMKKKQRLTSTSHDATEKSDSSTSLNNSSLPDIPDPLDLSGSSLLNRDVEAKNAYVSNQVEANSGSVGMARQVRLIDNEKEYDPTLNELRGPVNNSNGAGCSQGGGIGSEGDNVRPNGLLKVYPKELDKNSRFIGAKRRKSGSVKRFKQDGSTSNNHTAPTDQNLTPDLTTLDSFGRIARMGNEYPGVMENCNLSQKTKIEELDITKILKPMSFTASVSDNVQEVLVTFLALRSDGKEALVDNRFLKAHNPHLLIEFYEQHLKYNRTP | binds | – | – | – | – | –
JUMONJI14 (JMJ14), endogenous, Q8GUI6 1-954 (protein) MDQLASLAESVAMEEDSEKQSIKGESSLEPDSTPSSPKITARWNPSEACRPLVDDAPIFYPTNEDFDDPLGYIEKLRSKAESYGICRIVPPVAWRPPCPLKEKKIWENSKFPTRIQFIDLLQNREPIKKSTKTKKRKRRRISKIGYTRRKRDSGCDTASSGSSDSEGKFGFQTGPDFTLEEFQKYDEYFKECYFQSEDHPGSKASENKKFKPKVKDLEGEYWRIVEQATDEVEVYYGADLETKKFGSGFPKYKPGYPISEADQYSQCGWNLNNLSRLPGSVLAFESCDISGVIVPWLYVGMCFSTFCWHVEDHHLYSMNYLHTGDPKVWYGIPGNHAESFENVMKKRLPDLFEEQPDLLHQLVTQLSPRILKEEGVPVYRAVQRSGEFILTFPKAYHSGFNCGFNCAEAVNVAPVDWLVHGQNAVEGYSKQRRKSSLSHDKLLLGAAMEATYCLWELSLSKKKTPVIARWKRVCSEDGLLTKAVKKRVQMEEERLNHLQDGFSLRKMEGDFDNKRERECFLCFYDLHMSASSCKCSPNRFACLIHAKDLCSCESKDRYILIRHTLDELWALVRALEGDLDAIDLWASKCRDQYPSQHPRAREYAYLKSAPCIKSRGSSKVQQREQNNLQLVSERLQSDLTSNKEVQLKQDGDSDVNRHGHESERNHVHGITDKSAVTDVKLGVGGKFDEKKISVESQNPHSVSDVGCSELAKKVDGCLGGKDQNAATNRLSLSVELLSSGSLVVKKLWCSKQAIYPKGFKSRVKFLSVLDPTNLTNYISEVLDAGLLGPLFRVSVEDYPTENFSNVSAEKCWQMVTQRLKLEIIKKCDQPVSSLTSLQPLESINGLEMFGFLSPHVIKVVEALDPKHQLEEYWNQKAVKLFGAEPIKEGEKDDTEKGGASDPSLDRDTRLLRGLLKKATPEELVMMHGLLCGETRNTELKEELSTLVDKMEISP | binds | binds | binds | – | – | –
NAC050, endogenous (protein, UniProt Q9SQX9 1-447) MGRESLAVVSSPPSATAPSTAVSATSLAPGFRFHPTDEELVSYYLKRKVLGKPVRFDAIGEVDIYKHEPWDLAVFSKLKTRDQEWYFFSALDKKYGNGARMNRATNKGYWKATGKDREIRRDIQLLGMKKTLVFHSGRAPDGLRTNWVMHEYRLVEYETETNGSLLQDAYVLCRVFHKNNIGPPSGNRYAPFMEEEWADGGGALIPGIDVRVRVEALPQANGNNQMDQEMHSASKDLININELPRDATPMDIEPNQQNHHESAFKPQESNNHSGYEEDEDTLKREHAEEDERPPSLCILNKEAPLPLLQYKRRRQNESNNNSSRNTQDHCSSTITTVDNTTTLISSSAAAATNTAISALLEFSLMGISDKKENQQKEETSPPSPIASPEEKVNDLQKEVHQMSVERETFKLEMMSAEAMISILQSRIDALRQENEELKKKNASGQAS | – | – | – | binds | – | –
NAC050, endogenous, Q9SQX9 1-447 (protein) MGRESLAVVSSPPSATAPSTAVSATSLAPGFRFHPTDEELVSYYLKRKVLGKPVRFDAIGEVDIYKHEPWDLAVFSKLKTRDQEWYFFSALDKKYGNGARMNRATNKGYWKATGKDREIRRDIQLLGMKKTLVFHSGRAPDGLRTNWVMHEYRLVEYETETNGSLLQDAYVLCRVFHKNNIGPPSGNRYAPFMEEEWADGGGALIPGIDVRVRVEALPQANGNNQMDQEMHSASKDLININELPRDATPMDIEPNQQNHHESAFKPQESNNHSGYEEDEDTLKREHAEEDERPPSLCILNKEAPLPLLQYKRRRQNESNNNSSRNTQDHCSSTITTVDNTTTLISSSAAAATNTAISALLEFSLMGISDKKENQQKEETSPPSPIASPEEKVNDLQKEVHQMSVERETFKLEMMSAEAMISILQSRIDALRQENEELKKKNASGQAS | – | binds | binds | – | – | –
NAC052, endogenous, Q9SQY0 1-451 (protein) MGRESVAVVTAPPSATAPGTASVATSLAPGFRFHPTDEELVSYYLKRKVLGQPVRFDAIGEVDIYKHEPWDLAVFSRLKTRDQEWYFYSALDKKYGNGARMNRATNRGYWKATGKDREIRRDILLLGMKKTLVFHSGRAPDGLRTNWVMHEYRLVEYETEKNGNLVQDAYVLCRVFHKNNIGPPSGNRYAPFMEEEWADDEGALIPGIDVKLRLEPPPVANGNDQMDQEIQSASKSLININEPPRETAPLDIESDQQNHHENDLKPEEHNNNNNYDENEETLKREQMEEEERPPRPVCVLNKEAPLPLLQYKRRRQSESNNNSSRNTQDHCSSTTTTVDNTTTLISSSAAATNTAISALLEFSLMGISDKKEKPQQPLRPHKEPLPPQTPLASPEEKVNDLQKEIHQMSVERETFKLEMMSAEAMISILQSRIDALRQENEELKKNNANGQ | binds | binds | binds | – | – | –
LIKE HETEROCHROMATIN PROTEIN1 (LHP1), endogenous (protein, UniProt Q946J8 1-445) MKGASGAVKKKPQVLNEAGEAETAVETVGESRKISGDGGFGSDDGGGGGGGGSGESILREIGDDRPTEDGDEEEEEDEDEDDGGDEEDEEGEGEGGQEERPKLDEGFYEIEAIRRKRVRKGKVQYLIKWRGWPETANTWEPLENLQSIADVIDAFEGSLKPGKPGRKRKRKYAGPHSQMKKKQRLTSTSHDATEKSDSSTSLNNSSLPDIPDPLDLSGSSLLNRDVEAKNAYVSNQVEANSGSVGMARQVRLIDNEKEYDPTLNELRGPVNNSNGAGCSQGGGIGSEGDNVRPNGLLKVYPKELDKNSRFIGAKRRKSGSVKRFKQDGSTSNNHTAPTDQNLTPDLTTLDSFGRIARMGNEYPGVMENCNLSQKTKIEELDITKILKPMSFTASVSDNVQEVLVTFLALRSDGKEALVDNRFLKAHNPHLLIEFYEQHLKYNRTP | – | – | – | – | binds | binds
PRC2 accessory protein ICU11, endogenous (protein, UniProt Q3ED68 1-397) MCNQTPLRSMALDSSGKQPEQQQQQQPRASSGNGEARLKLRRTPNEEHEPENYEDLPLDYSPSLFTSLERYLPEQLLNSTRIDKASFMRDLLLRYSPDTERVRVLRHKEYRDKIMSSYQRLHGEIYTLDPSSFFAPSFLGAFSRKSEPNFRSSMVESYPGIFTFEMFKPQFCEMLLAEVEHMEKWVYDSRSTIMRPNTMNNFGVVLDDFGFDSMLQKLVDDFISPIAQVLFPEVCGTSLDSHHGYIVEYGKDRDVDLGFHVDDSEVSLNVCLGKQFSGGELYFRGVRCDKHVNSDSTEKEVYDYSHVPGHAILHRGRHRHGARATTSGHRANLILWCRSSTFREMKNYQRDFSGWCGGCKLDKQRRQRDSINATKEILARKAAEKTLVELASKSCAE | – | – | – | binds | binds | binds

Reference: publication PMC10049986
